Source: patent US20250288515A1, “METHOD AND COMPOSITION FOR TREATING LUNG DISEASES” (MannKind Corporation, priority 2022, published 2025)
Some of these results come from one statement about several compounds together.

Assay: Stability testing of powders by assay of nintedanib content
Format: physicochemical
Details: 40° C., 75% RH, 12 weeks; FIG. 3, FIG. 4

COC(=O)c1ccc2c(c1)NC(=O)/C2=C(\Nc1ccc(N(C)C(=O)CN2CCN(C)CC2)cc1)c1ccccc1 [nintedanib free base, nintedanib]
Loss of the original content of nintedanib: less than 5%
